According to the supplement of paper PMC12067093, “Discovery and optimisation of a covalent ligand for TRIM25 and its application to targeted protein ubiquitination” (Chemical Science, 2025):
The other results are listed elsewhere or left out.

Amino acid sequences for entries named in this document (tags omitted). A change or cut given only in a name is not applied to a line headed by its entry.
UniProt Q9NW15: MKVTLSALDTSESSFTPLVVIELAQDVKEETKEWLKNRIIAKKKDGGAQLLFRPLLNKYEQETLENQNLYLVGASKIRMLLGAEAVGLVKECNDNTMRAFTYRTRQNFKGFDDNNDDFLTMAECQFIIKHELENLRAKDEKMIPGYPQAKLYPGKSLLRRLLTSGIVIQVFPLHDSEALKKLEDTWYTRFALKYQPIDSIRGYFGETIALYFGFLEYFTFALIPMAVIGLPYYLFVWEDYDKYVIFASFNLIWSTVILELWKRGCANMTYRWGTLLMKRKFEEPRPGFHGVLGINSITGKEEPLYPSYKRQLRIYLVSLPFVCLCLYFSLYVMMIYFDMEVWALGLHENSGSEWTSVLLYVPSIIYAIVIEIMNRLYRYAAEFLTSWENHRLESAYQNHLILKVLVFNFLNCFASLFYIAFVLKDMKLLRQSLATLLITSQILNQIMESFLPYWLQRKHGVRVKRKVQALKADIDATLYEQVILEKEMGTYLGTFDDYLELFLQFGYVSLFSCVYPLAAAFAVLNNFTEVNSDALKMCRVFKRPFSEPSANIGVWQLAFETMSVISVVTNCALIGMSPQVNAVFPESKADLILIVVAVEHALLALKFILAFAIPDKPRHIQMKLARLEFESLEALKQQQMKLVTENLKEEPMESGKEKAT
UniProt O95782: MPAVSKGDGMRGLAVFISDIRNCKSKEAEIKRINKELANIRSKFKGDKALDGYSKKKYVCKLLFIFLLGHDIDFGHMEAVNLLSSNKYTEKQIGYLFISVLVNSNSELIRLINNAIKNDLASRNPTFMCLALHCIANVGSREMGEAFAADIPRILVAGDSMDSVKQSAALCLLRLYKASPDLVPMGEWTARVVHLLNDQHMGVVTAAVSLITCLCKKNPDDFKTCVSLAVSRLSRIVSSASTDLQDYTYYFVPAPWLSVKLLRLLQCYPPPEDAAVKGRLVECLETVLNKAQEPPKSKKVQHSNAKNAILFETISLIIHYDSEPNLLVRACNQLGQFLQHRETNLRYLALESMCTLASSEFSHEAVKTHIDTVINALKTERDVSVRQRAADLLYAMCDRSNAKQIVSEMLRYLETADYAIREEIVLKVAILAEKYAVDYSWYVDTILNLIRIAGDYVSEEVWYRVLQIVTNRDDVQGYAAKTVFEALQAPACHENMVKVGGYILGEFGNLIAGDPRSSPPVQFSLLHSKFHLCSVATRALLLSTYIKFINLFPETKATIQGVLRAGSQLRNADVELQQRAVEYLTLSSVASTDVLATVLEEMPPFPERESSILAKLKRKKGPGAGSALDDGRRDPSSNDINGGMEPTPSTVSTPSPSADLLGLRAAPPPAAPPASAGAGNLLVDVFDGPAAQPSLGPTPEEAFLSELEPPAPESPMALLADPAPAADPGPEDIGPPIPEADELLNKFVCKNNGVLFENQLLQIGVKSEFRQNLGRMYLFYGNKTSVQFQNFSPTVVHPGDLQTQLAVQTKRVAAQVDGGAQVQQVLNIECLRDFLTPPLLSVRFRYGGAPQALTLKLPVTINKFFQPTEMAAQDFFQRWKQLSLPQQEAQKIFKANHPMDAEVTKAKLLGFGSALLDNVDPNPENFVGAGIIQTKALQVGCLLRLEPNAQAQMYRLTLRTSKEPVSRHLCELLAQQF
UniProt P04083: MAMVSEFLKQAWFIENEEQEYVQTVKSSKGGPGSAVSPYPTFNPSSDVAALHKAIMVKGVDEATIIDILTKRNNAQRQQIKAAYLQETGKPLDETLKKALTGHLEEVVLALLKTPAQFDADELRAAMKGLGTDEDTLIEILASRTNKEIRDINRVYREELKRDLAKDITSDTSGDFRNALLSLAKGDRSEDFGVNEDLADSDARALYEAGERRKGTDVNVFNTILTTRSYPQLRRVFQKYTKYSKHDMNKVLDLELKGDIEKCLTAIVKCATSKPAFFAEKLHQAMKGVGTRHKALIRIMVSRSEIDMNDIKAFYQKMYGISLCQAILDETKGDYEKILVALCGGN
UniProt Q9HC16: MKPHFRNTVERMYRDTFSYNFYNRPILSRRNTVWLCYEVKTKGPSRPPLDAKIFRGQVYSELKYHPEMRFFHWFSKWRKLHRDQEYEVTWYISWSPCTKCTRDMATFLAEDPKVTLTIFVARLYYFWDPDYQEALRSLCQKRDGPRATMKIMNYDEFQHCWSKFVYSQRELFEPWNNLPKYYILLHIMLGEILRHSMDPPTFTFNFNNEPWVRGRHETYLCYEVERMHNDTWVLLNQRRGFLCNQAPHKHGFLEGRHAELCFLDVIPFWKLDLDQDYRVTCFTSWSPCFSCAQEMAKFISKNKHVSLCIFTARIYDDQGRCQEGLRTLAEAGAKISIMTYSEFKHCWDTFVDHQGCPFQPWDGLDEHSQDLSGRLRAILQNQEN
UniProt O43747: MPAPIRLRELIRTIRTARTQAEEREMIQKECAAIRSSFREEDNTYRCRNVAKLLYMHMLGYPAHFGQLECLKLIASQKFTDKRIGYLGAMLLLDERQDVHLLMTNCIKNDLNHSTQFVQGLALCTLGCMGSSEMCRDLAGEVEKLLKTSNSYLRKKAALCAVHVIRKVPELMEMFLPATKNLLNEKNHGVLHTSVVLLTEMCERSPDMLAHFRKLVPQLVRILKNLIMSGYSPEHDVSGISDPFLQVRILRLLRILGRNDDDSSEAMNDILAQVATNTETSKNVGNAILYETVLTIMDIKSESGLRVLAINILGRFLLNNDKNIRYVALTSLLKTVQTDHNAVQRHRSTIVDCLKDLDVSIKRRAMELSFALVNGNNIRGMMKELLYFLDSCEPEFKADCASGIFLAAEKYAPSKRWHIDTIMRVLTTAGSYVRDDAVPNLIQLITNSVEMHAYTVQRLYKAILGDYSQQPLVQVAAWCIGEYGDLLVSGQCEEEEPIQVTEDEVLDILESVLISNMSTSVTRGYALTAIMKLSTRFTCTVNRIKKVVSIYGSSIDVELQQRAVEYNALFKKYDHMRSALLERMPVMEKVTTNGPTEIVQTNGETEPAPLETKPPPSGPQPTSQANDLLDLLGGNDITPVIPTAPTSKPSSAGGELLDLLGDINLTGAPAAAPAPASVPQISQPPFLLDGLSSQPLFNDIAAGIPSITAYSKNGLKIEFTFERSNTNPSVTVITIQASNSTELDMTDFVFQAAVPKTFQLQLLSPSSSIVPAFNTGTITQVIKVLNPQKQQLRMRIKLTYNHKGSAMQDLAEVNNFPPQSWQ
UniProt O00189: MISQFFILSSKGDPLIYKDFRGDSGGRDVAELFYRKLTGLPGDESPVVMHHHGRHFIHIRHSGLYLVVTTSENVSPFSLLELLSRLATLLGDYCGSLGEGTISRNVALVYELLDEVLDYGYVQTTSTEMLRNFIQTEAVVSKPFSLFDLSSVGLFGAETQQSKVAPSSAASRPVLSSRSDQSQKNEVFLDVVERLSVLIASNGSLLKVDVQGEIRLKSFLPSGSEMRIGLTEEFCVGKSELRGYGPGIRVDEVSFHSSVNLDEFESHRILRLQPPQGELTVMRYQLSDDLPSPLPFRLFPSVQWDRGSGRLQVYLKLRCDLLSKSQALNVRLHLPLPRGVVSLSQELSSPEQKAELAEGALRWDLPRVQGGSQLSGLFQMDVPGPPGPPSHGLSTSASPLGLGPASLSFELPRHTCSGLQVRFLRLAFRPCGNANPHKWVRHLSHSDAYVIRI
UniProt Q10567: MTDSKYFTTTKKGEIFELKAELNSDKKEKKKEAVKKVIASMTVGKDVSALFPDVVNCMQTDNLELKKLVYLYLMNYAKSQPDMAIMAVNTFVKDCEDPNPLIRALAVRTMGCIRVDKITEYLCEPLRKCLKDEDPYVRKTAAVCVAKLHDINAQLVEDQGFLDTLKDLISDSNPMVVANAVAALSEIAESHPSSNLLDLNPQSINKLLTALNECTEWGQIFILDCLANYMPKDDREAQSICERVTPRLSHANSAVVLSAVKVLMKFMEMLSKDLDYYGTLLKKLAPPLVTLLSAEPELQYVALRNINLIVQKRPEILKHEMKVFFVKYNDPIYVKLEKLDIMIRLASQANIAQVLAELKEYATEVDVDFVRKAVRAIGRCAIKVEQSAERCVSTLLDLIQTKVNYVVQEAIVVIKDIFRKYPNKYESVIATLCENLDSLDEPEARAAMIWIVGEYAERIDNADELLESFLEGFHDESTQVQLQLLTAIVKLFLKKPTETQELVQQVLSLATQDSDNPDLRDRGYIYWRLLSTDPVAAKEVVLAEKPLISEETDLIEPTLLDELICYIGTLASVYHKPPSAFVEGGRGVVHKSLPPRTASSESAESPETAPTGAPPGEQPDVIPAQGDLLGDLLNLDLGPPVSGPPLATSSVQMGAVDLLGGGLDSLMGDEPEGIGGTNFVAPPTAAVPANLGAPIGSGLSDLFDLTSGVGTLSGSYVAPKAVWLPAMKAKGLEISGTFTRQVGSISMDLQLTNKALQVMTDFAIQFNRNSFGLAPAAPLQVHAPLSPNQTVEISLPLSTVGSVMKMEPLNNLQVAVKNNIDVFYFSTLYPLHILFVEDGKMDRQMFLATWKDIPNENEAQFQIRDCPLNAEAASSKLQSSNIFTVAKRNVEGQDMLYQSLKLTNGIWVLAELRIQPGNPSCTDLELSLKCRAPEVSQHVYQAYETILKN
UniProt O43299: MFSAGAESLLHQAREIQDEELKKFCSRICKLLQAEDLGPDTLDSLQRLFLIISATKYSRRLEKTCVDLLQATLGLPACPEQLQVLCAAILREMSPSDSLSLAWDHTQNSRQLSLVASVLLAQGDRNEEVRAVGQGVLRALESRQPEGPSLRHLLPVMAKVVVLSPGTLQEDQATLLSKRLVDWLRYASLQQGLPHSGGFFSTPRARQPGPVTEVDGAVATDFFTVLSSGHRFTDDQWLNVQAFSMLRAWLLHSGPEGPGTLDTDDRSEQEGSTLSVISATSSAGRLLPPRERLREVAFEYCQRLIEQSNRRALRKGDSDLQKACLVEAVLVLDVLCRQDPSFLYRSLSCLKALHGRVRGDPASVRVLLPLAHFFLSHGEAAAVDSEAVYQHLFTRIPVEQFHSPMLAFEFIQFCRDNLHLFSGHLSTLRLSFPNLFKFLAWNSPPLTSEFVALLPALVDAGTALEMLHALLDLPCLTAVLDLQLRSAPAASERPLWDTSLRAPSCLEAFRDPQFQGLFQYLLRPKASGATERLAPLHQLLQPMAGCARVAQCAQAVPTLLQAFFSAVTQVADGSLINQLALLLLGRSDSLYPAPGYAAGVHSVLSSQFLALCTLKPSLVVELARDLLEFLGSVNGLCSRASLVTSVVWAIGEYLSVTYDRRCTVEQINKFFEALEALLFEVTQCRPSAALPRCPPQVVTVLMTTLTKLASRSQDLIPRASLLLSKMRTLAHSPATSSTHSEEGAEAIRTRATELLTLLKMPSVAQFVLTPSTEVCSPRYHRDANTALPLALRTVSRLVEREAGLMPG
UniProt Q9NQW6: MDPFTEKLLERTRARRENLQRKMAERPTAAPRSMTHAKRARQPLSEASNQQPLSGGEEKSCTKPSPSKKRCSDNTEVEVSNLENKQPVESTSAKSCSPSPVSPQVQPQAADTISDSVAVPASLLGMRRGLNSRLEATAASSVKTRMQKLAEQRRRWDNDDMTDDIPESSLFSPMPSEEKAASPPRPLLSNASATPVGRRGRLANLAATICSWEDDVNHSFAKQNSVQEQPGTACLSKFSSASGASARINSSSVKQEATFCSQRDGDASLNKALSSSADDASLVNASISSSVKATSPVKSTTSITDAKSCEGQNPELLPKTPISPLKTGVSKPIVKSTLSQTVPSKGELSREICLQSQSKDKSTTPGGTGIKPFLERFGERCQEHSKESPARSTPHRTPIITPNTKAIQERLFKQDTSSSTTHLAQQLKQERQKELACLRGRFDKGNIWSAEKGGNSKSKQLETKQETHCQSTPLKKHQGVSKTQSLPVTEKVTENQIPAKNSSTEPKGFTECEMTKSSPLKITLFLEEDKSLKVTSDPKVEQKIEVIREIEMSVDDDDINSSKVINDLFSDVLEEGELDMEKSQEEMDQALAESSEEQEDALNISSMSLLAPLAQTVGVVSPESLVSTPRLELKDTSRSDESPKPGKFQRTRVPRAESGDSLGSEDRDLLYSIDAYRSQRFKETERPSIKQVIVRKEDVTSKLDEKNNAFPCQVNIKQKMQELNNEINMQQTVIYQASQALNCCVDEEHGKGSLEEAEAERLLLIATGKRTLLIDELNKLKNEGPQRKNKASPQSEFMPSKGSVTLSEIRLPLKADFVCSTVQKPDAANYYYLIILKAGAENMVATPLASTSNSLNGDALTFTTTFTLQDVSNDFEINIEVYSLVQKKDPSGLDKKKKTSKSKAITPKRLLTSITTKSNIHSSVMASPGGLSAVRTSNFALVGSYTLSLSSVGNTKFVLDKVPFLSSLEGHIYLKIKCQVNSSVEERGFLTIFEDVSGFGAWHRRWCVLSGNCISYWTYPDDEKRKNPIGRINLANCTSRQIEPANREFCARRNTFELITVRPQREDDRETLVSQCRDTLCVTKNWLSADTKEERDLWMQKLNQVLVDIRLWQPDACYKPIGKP

What follows are targets tested with Cc1cc(ccc1-c1ccccc1)C(=O)N1CCCN(CC1)C(=O)CCl [compound 10] (assay: probe-labelled cysteine peptide fold change vs DMSO (competition) (log2 fold change); higher = less target engagement (more negative = stronger competition)). Conditions: 10 µM; THP-1; incubation time: 4 h.
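Further: competitive profiling in live THP-1 cells: cysteine peptides tagged with an iodoacetamide desthiobiotin (IA-DTB) probe, intensity after compound treatment relative to DMSO-treated cells.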

Target	probe-labelled cysteine peptide fold change
AP2A2_O94973_396_AVDLLYAMCDR (UniProt O94973)	0.187
ANKRD17_O75179_714_GGHTSVVCYLLDYPNNLLSAPPPDVTQLTPPSHDLNR (UniProt O75179)	0.104
ANO10_Q9NW15_92_ECNDNTMR (UniProt Q9NW15)	-0.0436
AP3D1_O14617_479_NGICEVLYAAAWICGEFSEHLQEPHHTLEAMLRPR (UniProt O14617)	-0.157
ANKRD17_O75179_1260_NTALTLACFQGR (UniProt O75179)	0.0822
ANKRD28_O15084_472_GCTPLHYAATSDTDGK (UniProt O15084)	0.0981
AP2A1_O95782_941_ALQVGCLLR (UniProt O95782)	0.223
ANKRD13A_Q8IZ07_5_SSACDAGDHYPLHLLVWK (UniProt Q8IZ07)	-0.198
AP3D1_O14617_60_ANAVCK (UniProt O14617)	0.214
ANXA1_P04083_263_CLTAIVK (UniProt P04083)	0.079
ANKRD28_O15084_701_GAVTGHEECVDALLQHGAK (UniProt O15084)	-0.144
AP1G2_O75843_401_ADCASGILLAAER (UniProt O75843)	0.141
ANKLE2_Q86XL3_674_CSAFPLEQEADLIEAAEPGGPHSSR (UniProt Q86XL3)	-0.124
APOBEC3G_Q9HC16_261_HAELCFLDVIPFWK (UniProt Q9HC16)	-0.0342
AP2M1_Q96CW1_246+251_QSIAIDDCTFHQCVR (UniProt Q96CW1)	0.119
ANKRD44_Q8N8A2_914_DLNTPLHLACSK (UniProt Q8N8A2)	-0.204
APAF1_O14727_1083_DFVCHQGTVLSCDISHDATK (UniProt O14727)	0.0692
AP1G1_O43747_353_STIVDCLK (UniProt O43747)	-0.0326
APLP2_Q06481_80_SCFETK (UniProt Q06481)	-0.244
AP4M1_O00189_235_IGLTEEFCVGK (UniProt O00189)	-0.0533

Target	probe-labelled cysteine peptide fold change
ANXA7_P20073_327_LLVSMCQGNR (UniProt P20073)	0.05
AP3D1_O14617_1133_CSDSTLLSNLLEEMK (UniProt O14617)	0.0262
ANKRD28_O15084_838_TPLHAAAFTDHVECLQLLLSHNAQVNSVDSTGK (UniProt O15084)	-0.0345
AP1B1_Q10567_433_YESVIATLCENLDSLDEPEAR (UniProt Q10567)	0.44
ANKRD17_O75179_242_SLAEACSEGDVNAVR (UniProt O75179)	0.0211
ANKLE2_Q86XL3_844_RLFLFGEEPSKLDQDVLAALECADVDPHQFPAVHR (UniProt Q86XL3)	-0.195
ANKRD27_Q96NW4_720_CAPAQK (UniProt Q96NW4)	-0.195
AP5Z1_O43299_546_LAPLHQLLQPMAGCAR (UniProt O43299)	0.0763
ANXA1_P04083_324_MYGISLCQAILDETK (UniProt P04083)	-0.0121
AOAH_P28039_329_NHCNHR (UniProt P28039)	-0.145
ANKRD44_Q8N8A2_854_TPLHAAAFADHVECLQLLLR (UniProt Q8N8A2)	-0.0323
APEX2_Q9UBZ4_45_ILDELDADIVCLQETK (UniProt Q9UBZ4)	-0.504
ANLN_Q9NQW6_1037_INLANCTSR (UniProt Q9NQW6)	-0.121
ANXA7_P20073_285_VLIEILCTR (UniProt P20073)	0.189
ANKRD44_Q8N8A2_810_KFIGNPFTPLHCAIINDHGNCASLLLGAIDSSIVSCRDDK (UniProt Q8N8A2)	-0.251
APBB1IP_Q7Z5R6_401_YLCCDDTR (UniProt Q7Z5R6)	-0.318
AP2A1_O95782_283_LVECLETVLNK (UniProt O95782)	-0.0236
APOBEC3G_Q9HC16_160_IMNYDEFQHCWSK (UniProt Q9HC16)	0.0829
AP1G1_O43747_106_QDVHLLMTNCIK (UniProt O43747)	0.143

Same assay, conditions: 50 µM; THP-1; incubation time: 4 h

Target	probe-labelled cysteine peptide fold change
AP2A2_O94973_396_AVDLLYAMCDR (UniProt O94973)	0.327
ANKRD17_O75179_714_GGHTSVVCYLLDYPNNLLSAPPPDVTQLTPPSHDLNR (UniProt O75179)	0.197
ANO10_Q9NW15_92_ECNDNTMR (UniProt Q9NW15)	0.125
AP3D1_O14617_479_NGICEVLYAAAWICGEFSEHLQEPHHTLEAMLRPR (UniProt O14617)	0.229
ANKRD17_O75179_1260_NTALTLACFQGR (UniProt O75179)	0.0585
ANKRD28_O15084_472_GCTPLHYAATSDTDGK (UniProt O15084)	-0.0308
AP2A1_O95782_941_ALQVGCLLR (UniProt O95782)	0.492
ANKRD13A_Q8IZ07_5_SSACDAGDHYPLHLLVWK (UniProt Q8IZ07)	-0.145
AP3D1_O14617_60_ANAVCK (UniProt O14617)	0.233
ANXA1_P04083_263_CLTAIVK (UniProt P04083)	-0.0354
ANKRD28_O15084_701_GAVTGHEECVDALLQHGAK (UniProt O15084)	-0.418
AP1G2_O75843_401_ADCASGILLAAER (UniProt O75843)	0.148
ANKLE2_Q86XL3_674_CSAFPLEQEADLIEAAEPGGPHSSR (UniProt Q86XL3)	-0.216
APOBEC3G_Q9HC16_261_HAELCFLDVIPFWK (UniProt Q9HC16)	-0.0566
AP2M1_Q96CW1_246+251_QSIAIDDCTFHQCVR (UniProt Q96CW1)	-0.117
ANKRD44_Q8N8A2_914_DLNTPLHLACSK (UniProt Q8N8A2)	-0.355
APAF1_O14727_1083_DFVCHQGTVLSCDISHDATK (UniProt O14727)	-0.041
AP1G1_O43747_353_STIVDCLK (UniProt O43747)	-0.0358
APLP2_Q06481_80_SCFETK (UniProt Q06481)	-0.128
AP4M1_O00189_235_IGLTEEFCVGK (UniProt O00189)	-0.00473

Target	probe-labelled cysteine peptide fold change
ANXA7_P20073_327_LLVSMCQGNR (UniProt P20073)	0.208
AP3D1_O14617_1133_CSDSTLLSNLLEEMK (UniProt O14617)	0.177
ANKRD28_O15084_838_TPLHAAAFTDHVECLQLLLSHNAQVNSVDSTGK (UniProt O15084)	-0.511
AP1B1_Q10567_433_YESVIATLCENLDSLDEPEAR (UniProt Q10567)	0.534
ANKRD17_O75179_242_SLAEACSEGDVNAVR (UniProt O75179)	0.0642
ANKLE2_Q86XL3_844_RLFLFGEEPSKLDQDVLAALECADVDPHQFPAVHR (UniProt Q86XL3)	-0.319
ANKRD27_Q96NW4_720_CAPAQK (UniProt Q96NW4)	-0.956
AP5Z1_O43299_546_LAPLHQLLQPMAGCAR (UniProt O43299)	-0.0973
ANXA1_P04083_324_MYGISLCQAILDETK (UniProt P04083)	0.0864
AOAH_P28039_329_NHCNHR (UniProt P28039)	0.0168
ANKRD44_Q8N8A2_854_TPLHAAAFADHVECLQLLLR (UniProt Q8N8A2)	-0.112
APEX2_Q9UBZ4_45_ILDELDADIVCLQETK (UniProt Q9UBZ4)	0.0664
ANLN_Q9NQW6_1037_INLANCTSR (UniProt Q9NQW6)	-0.171
ANXA7_P20073_285_VLIEILCTR (UniProt P20073)	0.1
ANKRD44_Q8N8A2_810_KFIGNPFTPLHCAIINDHGNCASLLLGAIDSSIVSCRDDK (UniProt Q8N8A2)	-0.692
APBB1IP_Q7Z5R6_401_YLCCDDTR (UniProt Q7Z5R6)	-0.372
AP2A1_O95782_283_LVECLETVLNK (UniProt O95782)	0.0113
APOBEC3G_Q9HC16_160_IMNYDEFQHCWSK (UniProt Q9HC16)	0.168
AP1G1_O43747_106_QDVHLLMTNCIK (UniProt O43747)	0.251
